Measured values: the supplement of paper PMC10849652
Some of the results follow.

Chains of the proteins cited; added tags and fusions are not shown. Lines headed by an entry give the natural chain unless they say otherwise; changes in a name come on top.
UniProt Q9BV94: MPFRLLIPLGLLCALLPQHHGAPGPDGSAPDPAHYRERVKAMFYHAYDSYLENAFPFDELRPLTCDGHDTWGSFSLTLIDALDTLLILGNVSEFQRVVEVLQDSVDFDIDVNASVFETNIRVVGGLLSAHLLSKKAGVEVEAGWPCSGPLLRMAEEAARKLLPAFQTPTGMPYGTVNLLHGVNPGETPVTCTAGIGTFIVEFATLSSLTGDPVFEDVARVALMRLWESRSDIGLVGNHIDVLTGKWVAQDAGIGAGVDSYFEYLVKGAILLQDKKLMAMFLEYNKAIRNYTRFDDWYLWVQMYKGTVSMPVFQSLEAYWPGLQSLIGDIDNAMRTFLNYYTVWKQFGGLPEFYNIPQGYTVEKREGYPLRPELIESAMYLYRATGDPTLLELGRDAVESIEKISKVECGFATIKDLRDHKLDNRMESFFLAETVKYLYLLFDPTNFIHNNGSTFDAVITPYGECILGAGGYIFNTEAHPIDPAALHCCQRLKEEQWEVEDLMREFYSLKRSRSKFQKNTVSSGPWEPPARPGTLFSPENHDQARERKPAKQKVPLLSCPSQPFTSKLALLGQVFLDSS
UniProt Q9NRW4: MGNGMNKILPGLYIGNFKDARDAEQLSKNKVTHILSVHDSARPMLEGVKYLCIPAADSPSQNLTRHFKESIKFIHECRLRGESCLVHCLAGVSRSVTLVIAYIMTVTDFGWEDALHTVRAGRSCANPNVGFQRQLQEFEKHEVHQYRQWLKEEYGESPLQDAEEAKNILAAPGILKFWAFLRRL
UniProt O00418: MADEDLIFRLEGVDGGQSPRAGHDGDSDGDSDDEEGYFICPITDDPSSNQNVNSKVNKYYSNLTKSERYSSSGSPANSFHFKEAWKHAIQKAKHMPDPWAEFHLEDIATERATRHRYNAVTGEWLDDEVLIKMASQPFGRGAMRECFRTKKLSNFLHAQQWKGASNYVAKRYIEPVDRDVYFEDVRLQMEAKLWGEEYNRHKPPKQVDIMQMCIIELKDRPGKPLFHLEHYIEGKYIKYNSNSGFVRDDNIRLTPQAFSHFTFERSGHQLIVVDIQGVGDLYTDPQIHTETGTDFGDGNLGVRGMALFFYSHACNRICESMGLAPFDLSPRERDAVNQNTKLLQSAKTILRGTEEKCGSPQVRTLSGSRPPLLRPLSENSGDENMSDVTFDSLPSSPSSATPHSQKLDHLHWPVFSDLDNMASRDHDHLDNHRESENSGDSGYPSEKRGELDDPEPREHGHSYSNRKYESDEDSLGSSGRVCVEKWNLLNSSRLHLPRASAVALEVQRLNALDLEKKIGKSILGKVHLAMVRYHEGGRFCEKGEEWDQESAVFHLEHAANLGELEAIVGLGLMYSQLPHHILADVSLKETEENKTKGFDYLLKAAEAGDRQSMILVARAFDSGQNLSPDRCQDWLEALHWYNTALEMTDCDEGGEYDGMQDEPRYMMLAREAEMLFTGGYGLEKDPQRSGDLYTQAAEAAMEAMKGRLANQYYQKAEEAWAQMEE
UniProt Q9NZJ0: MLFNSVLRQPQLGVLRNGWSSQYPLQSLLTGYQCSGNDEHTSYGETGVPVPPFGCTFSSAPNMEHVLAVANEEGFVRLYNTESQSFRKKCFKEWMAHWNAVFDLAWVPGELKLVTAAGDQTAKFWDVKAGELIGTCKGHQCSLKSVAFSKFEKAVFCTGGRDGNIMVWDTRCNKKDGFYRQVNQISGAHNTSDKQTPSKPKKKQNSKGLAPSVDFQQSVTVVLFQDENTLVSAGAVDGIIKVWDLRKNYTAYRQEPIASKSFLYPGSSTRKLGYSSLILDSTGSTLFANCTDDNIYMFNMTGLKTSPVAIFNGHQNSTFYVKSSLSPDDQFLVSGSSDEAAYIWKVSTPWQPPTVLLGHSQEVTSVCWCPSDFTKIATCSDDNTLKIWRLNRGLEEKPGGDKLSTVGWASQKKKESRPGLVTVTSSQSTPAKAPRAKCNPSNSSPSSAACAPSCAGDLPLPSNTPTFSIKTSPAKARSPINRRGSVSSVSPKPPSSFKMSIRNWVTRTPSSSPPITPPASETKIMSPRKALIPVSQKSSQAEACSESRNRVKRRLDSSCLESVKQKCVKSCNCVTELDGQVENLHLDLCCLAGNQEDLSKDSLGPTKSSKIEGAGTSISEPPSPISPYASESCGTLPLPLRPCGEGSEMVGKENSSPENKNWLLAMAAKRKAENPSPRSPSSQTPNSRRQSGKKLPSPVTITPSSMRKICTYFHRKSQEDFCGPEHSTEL
UniProt P51452: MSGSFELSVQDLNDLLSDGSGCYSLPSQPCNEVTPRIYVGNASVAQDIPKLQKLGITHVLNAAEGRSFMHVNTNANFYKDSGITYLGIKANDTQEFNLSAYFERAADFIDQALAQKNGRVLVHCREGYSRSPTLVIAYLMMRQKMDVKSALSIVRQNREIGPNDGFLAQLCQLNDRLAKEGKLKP
UniProt Q9H9B1: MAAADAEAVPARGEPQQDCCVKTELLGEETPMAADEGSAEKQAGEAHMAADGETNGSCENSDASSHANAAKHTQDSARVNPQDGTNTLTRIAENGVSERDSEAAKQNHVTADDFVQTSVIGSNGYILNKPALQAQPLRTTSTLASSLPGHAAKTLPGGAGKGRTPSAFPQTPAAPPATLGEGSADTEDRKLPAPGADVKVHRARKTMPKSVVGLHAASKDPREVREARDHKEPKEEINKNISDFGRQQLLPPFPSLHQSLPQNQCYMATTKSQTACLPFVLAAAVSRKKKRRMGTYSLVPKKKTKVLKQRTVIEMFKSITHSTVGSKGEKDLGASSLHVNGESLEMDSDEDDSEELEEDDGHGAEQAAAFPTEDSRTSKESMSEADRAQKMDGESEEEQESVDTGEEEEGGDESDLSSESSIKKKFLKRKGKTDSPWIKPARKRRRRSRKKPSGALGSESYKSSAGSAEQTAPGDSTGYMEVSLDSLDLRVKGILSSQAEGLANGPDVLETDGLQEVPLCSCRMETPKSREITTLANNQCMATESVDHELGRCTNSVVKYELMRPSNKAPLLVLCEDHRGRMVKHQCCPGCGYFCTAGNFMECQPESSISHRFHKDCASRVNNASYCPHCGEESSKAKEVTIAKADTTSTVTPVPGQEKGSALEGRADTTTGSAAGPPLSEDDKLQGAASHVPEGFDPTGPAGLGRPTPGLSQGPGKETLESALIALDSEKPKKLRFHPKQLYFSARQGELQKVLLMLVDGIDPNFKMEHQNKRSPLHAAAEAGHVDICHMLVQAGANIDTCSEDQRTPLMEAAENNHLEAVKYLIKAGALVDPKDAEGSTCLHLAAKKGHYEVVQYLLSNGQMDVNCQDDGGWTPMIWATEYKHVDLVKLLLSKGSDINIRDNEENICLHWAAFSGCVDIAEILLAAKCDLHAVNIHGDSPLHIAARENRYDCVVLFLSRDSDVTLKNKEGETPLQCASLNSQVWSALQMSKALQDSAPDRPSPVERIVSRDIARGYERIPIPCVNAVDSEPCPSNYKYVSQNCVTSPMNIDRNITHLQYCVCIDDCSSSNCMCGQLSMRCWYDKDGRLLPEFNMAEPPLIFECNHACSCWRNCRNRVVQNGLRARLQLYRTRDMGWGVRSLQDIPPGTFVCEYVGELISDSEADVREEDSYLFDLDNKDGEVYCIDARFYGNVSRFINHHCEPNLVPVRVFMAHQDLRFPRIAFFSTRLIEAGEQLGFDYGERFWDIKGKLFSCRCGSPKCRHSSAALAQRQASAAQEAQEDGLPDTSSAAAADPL
UniProt O60869: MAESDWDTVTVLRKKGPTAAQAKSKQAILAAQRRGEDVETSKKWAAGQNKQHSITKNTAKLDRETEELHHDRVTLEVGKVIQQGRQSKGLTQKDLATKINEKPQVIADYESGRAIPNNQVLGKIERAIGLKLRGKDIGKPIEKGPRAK
UniProt Q16610: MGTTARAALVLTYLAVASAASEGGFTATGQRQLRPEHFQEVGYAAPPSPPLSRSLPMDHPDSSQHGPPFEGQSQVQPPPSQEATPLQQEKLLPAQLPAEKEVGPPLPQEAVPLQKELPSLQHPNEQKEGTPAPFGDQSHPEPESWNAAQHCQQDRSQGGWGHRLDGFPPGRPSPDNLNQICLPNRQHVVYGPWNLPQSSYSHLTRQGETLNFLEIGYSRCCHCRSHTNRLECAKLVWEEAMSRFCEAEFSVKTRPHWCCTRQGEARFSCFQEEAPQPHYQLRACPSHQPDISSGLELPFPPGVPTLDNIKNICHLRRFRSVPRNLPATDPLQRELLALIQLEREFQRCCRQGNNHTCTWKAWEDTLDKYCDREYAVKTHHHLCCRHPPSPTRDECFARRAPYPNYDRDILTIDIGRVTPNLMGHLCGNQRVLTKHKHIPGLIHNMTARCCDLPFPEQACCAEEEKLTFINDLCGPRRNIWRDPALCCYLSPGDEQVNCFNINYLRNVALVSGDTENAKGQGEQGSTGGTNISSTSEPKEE
UniProt O75923: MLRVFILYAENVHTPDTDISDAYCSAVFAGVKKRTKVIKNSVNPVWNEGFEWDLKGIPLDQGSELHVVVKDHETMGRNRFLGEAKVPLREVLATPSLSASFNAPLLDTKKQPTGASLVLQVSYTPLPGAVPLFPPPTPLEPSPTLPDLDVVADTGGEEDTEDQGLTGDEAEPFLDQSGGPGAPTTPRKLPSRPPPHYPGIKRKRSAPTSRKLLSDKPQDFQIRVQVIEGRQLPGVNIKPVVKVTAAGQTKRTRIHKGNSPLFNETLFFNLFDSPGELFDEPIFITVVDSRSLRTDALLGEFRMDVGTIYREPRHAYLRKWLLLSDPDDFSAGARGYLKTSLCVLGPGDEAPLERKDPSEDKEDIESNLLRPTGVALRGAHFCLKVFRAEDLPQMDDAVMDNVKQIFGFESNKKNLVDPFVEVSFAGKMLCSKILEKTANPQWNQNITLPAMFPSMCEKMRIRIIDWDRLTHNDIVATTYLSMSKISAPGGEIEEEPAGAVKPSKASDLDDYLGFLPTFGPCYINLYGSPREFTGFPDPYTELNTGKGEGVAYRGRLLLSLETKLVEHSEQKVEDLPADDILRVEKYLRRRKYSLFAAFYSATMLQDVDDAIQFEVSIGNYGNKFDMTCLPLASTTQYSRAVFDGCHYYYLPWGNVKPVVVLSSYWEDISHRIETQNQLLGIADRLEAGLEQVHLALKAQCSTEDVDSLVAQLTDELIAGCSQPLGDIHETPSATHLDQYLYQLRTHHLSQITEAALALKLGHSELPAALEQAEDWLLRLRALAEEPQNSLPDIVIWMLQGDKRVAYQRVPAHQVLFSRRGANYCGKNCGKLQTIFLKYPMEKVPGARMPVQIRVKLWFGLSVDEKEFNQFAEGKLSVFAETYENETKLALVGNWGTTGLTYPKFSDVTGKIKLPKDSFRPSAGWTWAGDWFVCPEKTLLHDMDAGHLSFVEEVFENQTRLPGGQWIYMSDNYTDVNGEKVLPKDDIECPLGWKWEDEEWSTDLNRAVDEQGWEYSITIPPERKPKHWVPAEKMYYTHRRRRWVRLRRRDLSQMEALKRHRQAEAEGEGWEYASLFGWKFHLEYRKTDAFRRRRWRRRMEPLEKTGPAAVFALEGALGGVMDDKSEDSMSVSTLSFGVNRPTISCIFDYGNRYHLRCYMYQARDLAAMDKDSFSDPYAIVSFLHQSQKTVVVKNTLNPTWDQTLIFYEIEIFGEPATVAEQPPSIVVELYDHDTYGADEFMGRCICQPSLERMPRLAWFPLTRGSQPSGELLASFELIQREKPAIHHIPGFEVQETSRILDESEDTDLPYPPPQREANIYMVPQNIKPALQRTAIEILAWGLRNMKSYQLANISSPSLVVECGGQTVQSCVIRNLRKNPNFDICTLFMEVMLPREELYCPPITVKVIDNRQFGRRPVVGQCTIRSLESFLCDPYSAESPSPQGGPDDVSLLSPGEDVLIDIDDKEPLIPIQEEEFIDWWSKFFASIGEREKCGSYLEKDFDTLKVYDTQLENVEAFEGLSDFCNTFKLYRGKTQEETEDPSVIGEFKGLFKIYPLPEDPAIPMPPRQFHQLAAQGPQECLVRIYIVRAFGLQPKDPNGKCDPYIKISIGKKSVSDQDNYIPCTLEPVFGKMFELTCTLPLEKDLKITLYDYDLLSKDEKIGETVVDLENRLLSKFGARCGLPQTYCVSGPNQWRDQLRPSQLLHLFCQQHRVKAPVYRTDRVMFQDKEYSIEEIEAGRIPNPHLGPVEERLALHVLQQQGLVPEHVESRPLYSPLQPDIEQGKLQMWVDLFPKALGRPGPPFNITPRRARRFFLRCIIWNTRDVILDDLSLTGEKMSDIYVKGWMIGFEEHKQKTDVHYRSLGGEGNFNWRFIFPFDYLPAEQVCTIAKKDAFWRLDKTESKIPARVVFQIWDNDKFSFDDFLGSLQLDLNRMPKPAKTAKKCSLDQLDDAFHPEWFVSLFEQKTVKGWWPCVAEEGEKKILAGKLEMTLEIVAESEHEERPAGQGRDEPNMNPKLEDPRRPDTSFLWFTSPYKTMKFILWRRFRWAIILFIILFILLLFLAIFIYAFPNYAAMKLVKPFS
UniProt Q9C005, whole entry, looked up: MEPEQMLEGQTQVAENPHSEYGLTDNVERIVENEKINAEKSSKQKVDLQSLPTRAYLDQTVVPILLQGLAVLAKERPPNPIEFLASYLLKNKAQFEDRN

compound: Cc1cc(Nc2cc(CN3CCOCC3)c3nc(C)c(Cc4ccc(Cl)cc4F)n3n2)n[nH]1 [gandotinib]; experiment: log2 fold change, soluble protein after heating vs DMSO (PISA); higher = thermal stabilisation; K562 lysate, 10 uM; active = over 0.2 and 3.5 SD of the protein, either way, in both replicates (recomputed)
In short: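 A 30 min treatment with 10 μM compound was applied to crude K562 extract at 1 mg/mL protein in PBS pH 7.4 with 1 mM MgCl2. Heating for 3 min spanned 48°C-58°C, after which aliquots were pooled, adjusted to 0.5% NP-40 at 4°C and spun at 21,000xg for 90 min. TMTpro 16plex LC-MS/MS of the supernatant, with channel sums equalised, gave values recorded as log-two fold change in thermal stability against solvent controls, from duplicates.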

log2 fold change, inactive:
DVL3 (UniProt Q92997) 0.132
DYNC2H1 isoform 2 (UniProt Q8NCM8) 0.004
ECHDC1 (UniProt Q9NTX5) 0.021
EDEM2 (UniProt Q9BV94) 0.026
EEF2KMT (UniProt Q96G04) -0.083
DTYMK (UniProt P23919) -0.135
DUSP22 isoform 2 (UniProt Q9NRW4) 0.03
EHHADH (UniProt Q08426) -0.117
EEF2K (UniProt O00418) -0.034
DTL (UniProt Q9NZJ0) -0.053
EED, A0A5F9ZI63 0.022
EID1 (UniProt Q9Y6B2) 0.108
EEA1 (UniProt Q15075) 0.011
EFCAB2 isoform 2 (UniProt Q5VUJ9) -0.084
EHBP1 isoform 2 (UniProt Q8NDI1) -0.07
EFNB1 (UniProt P98172) -0.033
DUSP3 (UniProt P51452) 0.006
EHMT1 (UniProt Q9H9B1) 0.006
DPY19L4 (UniProt Q7Z388) 0.02
EDC4 (UniProt Q6P2E9) -0.027
EEF1G isoform 2 (UniProt P26641) -0.167
DTD2 (UniProt Q96FN9) 0.184
EDF1 (UniProt O60869) 0.078
ECM1 isoform 4 (UniProt Q16610) 0.006
DYSF isoform 13 (UniProt O75923) 0.029
DSC2 (UniProt Q02487) 0.078
DYNC1I2 isoform 2 (UniProt Q13409) -0.132
DTX3L (UniProt Q8TDB6) 0.01
EFR3A (UniProt Q14156) -0.076
DPY30 (UniProt Q9C005) -0.055
E4F1 (UniProt Q66K89) 0.015
EHD4 (UniProt Q9H223) -0.042
